# This is one part of the list. Shown are side measurements of this screen, not its main read-out; they come without a call. Compounds called inactive in the main read-out are mostly missing here. Potencies come from curve fits of mixed quality, noted in brackets.
# Assay: qHTS Assay for Lipid Storage Modulators in Drosophila S3 Cells;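 as to cell number change: cells counted by Cell Tracker Red CMTPX staining in the red channel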
# Conditions: BODIPY lipid droplet fluorescence, 18-24 h; for cell number change: measured here: cell count max response, cells fed with added oleic acid
# Outline: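 Drosophila S3 cells got compounds at several concentrations plus oleic acid (400 uM solution). Laser-scanning cytometry with 488 nm excitation read lipid droplets at 500-530 nm and cells at 575-640 nm. Percent activity was relative to 20 uM Triacsin C.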
# [1] = measured here: cell number channel AC50, cells fed with added oleic acid
# [2] = measured here: lipid fluorescence (Fed channel) AC50, cells fed with added oleic acid
Compound,AC50 [1],cell number change [%],AC50 [2]
COc1ccc(S(=O)(=O)N(C)CC(=O)Nc2cccc(C(C)=O)c2)cc1Cl,"0.00517 µM [falling, full curve, poor fit]",–,–
N/C(=N\N=C\c1ccco1)SC1CC(=O)N(c2ccc(C(=O)O)cc2)C1=O (configuration not stated),–,-28.1,"14.6 µM [falling, partial curve]"
O=S(=O)(NCC1OCCc2ccccc21)c1ccccc1 (configuration not stated),–,-6.12,"20.6 µM [rising, single point]"
CCn1c(SCC(=O)c2ccccc2)nc2ccccc2c1=O,–,–,"1.03 µM [rising, partial curve]"
Cc1ccc(CNC(=O)CCNC(=O)c2ccco2)cc1,"0.0651 µM [rising, full curve, poor fit]",34.7,"0.0731 µM [rising, full curve, poor fit]"
CC(C)OC(=O)CN1C(=O)C(C)(C)Oc2ccc(C(=O)NC(C)(C)C)cc21,–,1.29,"18.4 µM [rising, single point]"
COc1ccccc1C(=O)Nc1nnc(-c2ccc3c(c2)CCCC3)o1,–,–,"2.31 µM [rising, partial curve]"
COc1ccc2cc(C(C)C(=O)O)ccc2c1 (configuration not stated),–,28.8,"25.9 µM [rising, single point]"
O=S(=O)(NCC(Nc1ccc(Cl)cc1)c1ccccc1)c1ccccc1 (configuration not stated),–,-16.2,–
CN(C)CCCOC(=O)c1ccc(Br)cc1,–,–,"0.58 µM [falling, single point]"
CCOC(=O)N1CCC(NC(=O)CCC(=O)N2CC(C)Oc3ccc(Cl)cc32)CC1 (configuration not stated),–,–,"6.51 µM [rising, partial curve, poor fit]"
CC(C)c1ccc(NC(=O)CSC(C)c2nc3ccccc3c(=O)[nH]2)cc1 (configuration not stated),–,14.5,–
CCCCC(NC(=O)Cc1c(C)c2cc3c4c(oc3c(C)c2oc1=O)CCCC4)C(=O)O (configuration not stated),–,24.1,–
O=c1ccc(-c2ccccc2)nn1Cc1ccc(F)cc1,–,8.97,"16.4 µM [falling, single point]"
CN(C)c1ncnc2c1NC1=C(S2)C(=NCCCC(=O)O)CC(C)(C)C1,–,-14.3,"0.164 µM [falling, full curve, poor fit]"
O=C(O)CCn1c(SCc2cccc3ccccc23)nc2ccccc21,–,79.6,"6.51 µM [falling, single point]"
COC(CC(=O)NNC(=S)Nc1ccc(Cl)cc1)OC,"0.116 µM [falling, full curve, poor fit]",–,"0.103 µM [falling, full curve, poor fit]"
Cc1ccc(C(=O)OCc2cn3ccccc3n2)cc1,–,–,"7.31 µM [falling, partial curve, poor fit]"
CCOC(=O)N1CCN(C(=O)/C=C/c2cccc([N+](=O)[O-])c2)CC1,–,63.3,"8.2 µM [rising, partial curve]"
O=C(OCC(=O)N1CCCC1)c1ccc(S(=O)(=O)Nc2ccccc2)cc1,"0.731 µM [rising, full curve]",79.4,–
CC(=O)Nc1ccc(S(=O)(=O)Nc2nc3ccccc3nc2Nc2cccc(O)c2)cc1,"6.51 µM [falling, single point]",–,"3.66 µM [falling, full curve]"

Compound,AC50 [1],cell number change [%],AC50 [2]
Cc1ccc(S(=O)(=O)N(C)C)cc1NC(=S)NC(C)CCCC(C)C (configuration not stated),–,-12.9,"0.517 µM [falling, full curve, poor fit]"
CCc1ccc(-c2cc(C(=O)N3N=C(C(F)F)CC3(O)C(F)F)c3ccccc3n2)cc1 (configuration not stated),"18.4 µM [falling, partial curve]",-82.4,"29.1 µM [falling, single point]"
CCCCCCSc1nsc(NC(C)=O)n1,–,-10.9,–
CCOC(=O)C1=C(N)OC2=C(C(=O)CCC2)C1c1cccnc1 (configuration not stated),–,-20.7,–
CN(CC(=O)Nc1ccccc1Cl)C(=O)COC(=O)/C=C/c1cccc(C(F)(F)F)c1,"0.00517 µM [falling, full curve, poor fit]",-24.3,–
Cc1ccc(NC(=O)c2ccccc2-c2cc(C)no2)cc1,–,27.3,"11.2 µM [rising, single point]"
Cc1ccc(/C=C/C(=O)N2CCc3ccccc3C2)cc1,"14.6 µM [rising, single point]",35.4,"14.6 µM [rising, partial curve]"
CCOc1ccc(-n2c(-c3ccccc3)c[nH]c2=S)cc1,–,88.9,–
CCN(CC)CCNC(=O)c1ccc(Cl)c(S(=O)(=O)N2CCCCCC2)c1,–,-0.7,"6.51 µM [rising, full curve]"
CC(=O)Cc1nsc(NC(=O)c2ccc(COc3ccccc3C)o2)n1,–,19.1,"0.13 µM [rising, full curve, poor fit]"
CC(=O)Nc1ccc(Nc2cc(C)c3ccccc3n2)cc1,–,-1.69,–
O=C1c2ccccc2S(=O)(=O)N1Cc1cccc(S(=O)(=O)N2CCOCC2)c1,–,-14.4,"16.4 µM [rising, single point]"
COCCn1c(-c2ccc(F)cc2)nc2oc3cc(OC)ccc3c(=O)c2c1=O,"3.26 µM [rising, single point]",–,–
Cc1scc(C(=O)Nc2ccon2)c1-c1ccccc1,–,2.23,–
Cc1csc(NC(=O)C2CCCO2)n1 (configuration not stated),"0.651 µM [falling, full curve]",7.47,–
C=CCOc1cccc(C2/C(=C(\O)c3ccc4c(c3)OCCO4)C(=O)C(=O)N2Cc2cccnc2)c1 (configuration not stated),–,-2.29,"29.1 µM [rising, single point]"
CC1=C(C(=O)Nc2ccccc2)C(c2ccc(C)o2)N2C(=O)CSC2=N1 (configuration not stated),"32.6 µM [falling, single point]",-34,–
CC(C(=O)NCc1cccs1)n1cccc1 (configuration not stated),"3.26 µM [falling, full curve, poor fit]",-21.5,"1.84 µM [falling, full curve]"
Cc1cc(C)n(C(=O)Cn2nc([N+](=O)[O-])c(Br)c2C)n1,–,-15.7,"32.6 µM [falling, single point]"
CC1CCCCN1S(=O)(=O)c1coc(C(N)=O)c1 (configuration not stated),"29.1 µM [rising, single point]",38.9,–
Cn1cc(SCC(=O)Nc2ccc3c(c2)OCCO3)c2ccccc21,"2.31 µM [rising, full curve, poor fit]",29.5,–

# Arranged by count of non-hydrogen atoms (largest number first): 5 of the compounds above
Compound,AC50 [1],cell number change [%],AC50 [2]
C=CCOc1cccc(C2/C(=C(\O)c3ccc4c(c3)OCCO4)C(=O)C(=O)N2Cc2cccnc2)c1 (configuration not stated),–,-2.29,"29.1 µM [rising, single point]"
CC(=O)Cc1nsc(NC(=O)c2ccc(COc3ccccc3C)o2)n1,–,19.1,"0.13 µM [rising, full curve, poor fit]"
CCOc1ccc(-n2c(-c3ccccc3)c[nH]c2=S)cc1,–,88.9,–
CC1CCCCN1S(=O)(=O)c1coc(C(N)=O)c1 (configuration not stated),"29.1 µM [rising, single point]",38.9,–
CC(C(=O)NCc1cccs1)n1cccc1 (configuration not stated),"3.26 µM [falling, full curve, poor fit]",-21.5,"1.84 µM [falling, full curve]"

# Later entries

Compound,AC50 [1],cell number change [%],AC50 [2]
O=C(NCCCN1CCOCC1)c1csc2c1CCCC2,–,13.4,"29.1 µM [rising, single point]"
O=C(COC(=O)c1c(Cl)cccc1Cl)Nc1cccc(S(=O)(=O)NC2=NCCCCC2)c1,–,-40.2,"0.00461 µM [falling, full curve, poor fit]"
N#C/C(=C\c1ccc(Sc2ccccc2)o1)c1nc2ccccc2[nH]1,"1.84 µM [rising, full curve]",30.3,"2.06 µM [rising, partial curve]"
COc1ccccc1C(c1nnnn1Cc1ccco1)N1CCN(c2cccc(C)c2C)CC1 (configuration not stated),–,-16.5,"32.6 µM [falling, single point]"
COc1cccc(C(=O)C[n+]2cccc3cc(OC)ccc32)c1,–,-13,"0.411 µM [falling, full curve, poor fit]"
CCC(C)c1ccc(NC(=O)c2c([N+](=O)[O-])cnn2CC)cc1 (configuration not stated),–,-23.5,–
O=C1c2ccccc2CN2C(=O)c3ccccc3CN12,–,1.39,"2.06 µM [rising, partial curve]"
Cc1c(Br)c([N+](=O)[O-])nn1CC(=O)Nc1cccc2nonc12,–,2.04,–
COc1ccc(C)cc1NC(=O)COC(=O)c1ccccc1SCC(=O)N1CCCC1,"3.66 µM [falling, full curve]",-50,"0.58 µM [falling, single point]"
Cc1ccc(CS(=O)(=O)CCC(=O)NCCCN2CCCC2=O)cc1,"29.1 µM [rising, single point]",39.7,–
COC(=O)C1=C(C)N(Cc2ccccc2)C(=NCc2cc(OC)c(OC)c(OC)c2)N[C@H]1c1cccc(F)c1,–,-9.58,–
Cc1sc(NC(=O)CN2CCOCC2)nc1-c1ccc2c(c1)CCN2S(=O)(=O)c1ccccc1,"9.2 µM [falling, partial curve, poor fit]",-59.5,"20.6 µM [falling, single point]"
CCCCNc1c([N+](=O)[O-])c(=O)n(C)c2ccccc12,–,15,"10.3 µM [rising, partial curve, poor fit]"
O=C(Nc1cccc(Br)c1)c1ccc(Cl)c(S(=O)(=O)N2CCOCC2)c1,–,-26.2,"7.31 µM [falling, partial curve]"
COc1cc(/C=C/c2[nH]c(=O)[nH]c(=O)c2[N+](=O)[O-])cc([N+](=O)[O-])c1O,"0.13 µM [rising, full curve, poor fit]",54.1,–
COc1ccc2nc(C)cc(SCC(=O)N/N=C/c3ccccc3)c2c1,–,28.6,"3.26 µM [rising, partial curve]"
CC(C)CNC(=O)CSc1ccc(S(=O)(=O)N(C)C2CCCCC2)cn1,"29.1 µM [falling, single point]",-50,"16.4 µM [rising, single point]"
O=C(NCc1ccco1)C1CCC(N2C(=O)c3ccccc3C2=O)CC1 (configuration not stated),–,28.4,–
COc1cccc(CN(C)S(=O)(=O)c2ccc3c(c2)OCCO3)c1,"0.116 µM [falling, full curve, poor fit]",-25,"29.1 µM [rising, single point]"

# Source: PubChem BioAssay AID2685 (National Center for Advancing Translational Sciences (NCATS), 2010)
